The other results are listed elsewhere or left out.
B1: il2ra_site1_1z92_sap_7_mot_54e474eed2d0515e81978198f0f96ec2_0001_000000202_0001_15_30_H_._321007649576c6d16d41e547348c2159_0001_0001_0000100011_0000001_0_0001 (protein)
chain: GEEEAEELLKKAGLPPRAIKWLLELLKSAARTNNPRQLEFLLQFIESLVGDPELAREVVELIERE
B2: il2ra_site2_2erj_normal_mot_HHH_b1_06542_af2_000000257_0001_1_17_H_._HHH_b1_08512_af2_0001_0000100007_0000001_0 (protein)
chain: SSSSDETEKALEEFAEEAFENNDRAYLRLLERFLRRTLHVSGDPRIERLLELVEELLERLKSSSS
B3: il2ra_site2_2erj_sap_21_mot_098419f8c790fd6be31b71e918b1b3ba_0001_1_000000064_0001_16_32_H_._HHH_b1_01372_0001_0000200009_0000001_0_0001 (protein)
chain: SSSSSDELHRAYELANILLHLVARNDREEFEEISEEFRELVERLQSENAREILEALERLLSSSSS
B4: il2ra_site2_2erj_sap_25_mot_HHH_b2_02941_af2_000000183_0001_1_17_H_._2bd1b0f3045d084678c76d87b19d0498_0001_0001_0000700033_0000001_0_0001 (protein)
chain: SSSDRERVEELVEEIEELLEEGNPREAIKLATEILELVEEYRDPELHKLAWEALELLMELGSSSS
B5: il2ra_site1_2b5i_normal_mot_22370d59370c406a0c205a431f537cfa_0001_af2_000000141_0001_1_31_H_._HHH_b2_04268_af2_0001_0000400016_0000001_0_af2pred_dldesign_0_af2p … (protein)
chain: SSSSSKEQAKEVSDVIEELVEELGLSDDDYAKLSRLAVELLYKGVSVEEIKERLREEALRLSSSS
B6: il2ra_site1_2b5i_sap_20_mot_HHH_b2_05316_000000083_0001_20_36_H_._HHH_b1_08114_0001_0000100004_0000001_0_0001_af2pred_dldesign_0_af2pred (protein)
chain: SSSSDAAFDEIDELFKKAEEVRRQGKKEETRKLLEEAVKVAEAANDEKAVKQLKYLLENLSSSSS
B7: il2ra_site2_2erj_normal_mot_HHH_b1_06697_000000025_0001_41_54_H_._HHH_eva_0027_0001_0000100002_0000001_0 (protein)
chain: SSSEESEEAEELIEEIAKRLGLDPLAVRFARLTFEDQLENGASPEEALKVAEEALREILEAKSSS
B8: il2ra_site1_1z92_sap_10_mot_HHH_b1_06022_000000044_0001_1_18_H_._HHH_b2_01597_0001_0000700039_0000001_0_0001 (protein)
chain: SSSSDEEHRKRFEELAEIAEELGSEFLARQIELKLERYERAGDPELLRAAERLVEDMKRVWSSSS
B9: il2ra_site2_2erj_sap_24_mot_66c2fca85847babee3b8944584cfd08f_0001_1_000000232_0001_16_30_H_._595119ead38f9ce12e857540ce41a9a5_0001_1_af2_0001_0000200009_0000001 … (protein)
chain: SSSSDAQELAREVFEQIHRLFKEGDREEIEELTERVRRELEELGDPHAAEAIERAARFALSSSSS
B10: il2ra_site2_2erj_normal_mot_HHH_b1_02230_000000024_0001_20_37_H_._HHH_b1_04356_0001_0000400014_0000001_0 (protein)
chain: SSSSDREEVERLLEELEEAVERNDFSLFLKLAREILELILEIGDDRLAELLNRLSKLAMHSSSSS
B11: il2ra_site1_3nfp_sap_8_mot_HHH_b1_04221_000000040_0001_40_56_H_._16d56542c9725820401ab7c11c235cbe_0001_0001_0000300014_0000001_0_0001 (protein)
chain: SSSSNEAAREATELMREIRRLLKEGNPEEARKLLEELEELAERNNDPVLKWLVRQFEESINSSSS
B12: il2ra_site2_2erj_sap_17_mot_HHH_b2_02500_af2_000000175_0001_19_35_H_._HHH_b2_04242_af2_0001_0000200003_0000001_0_0001 (protein)
chain: SSSSLREVYEVANEATHLLANGNPEEAEKLLEELLEELKRRGDESAFKLVEELLKTVEHISSSSS
B13: il2ra_site1_2b5i_normal_mot_HHH_b2_04910_000000118_0001_1_19_H_._HHH_b1_05812_af2_0001_0000100003_0000001_0_af2pred_dldesign_0_af2pred (protein)
chain: SSSSSPAAEEARRLFEAANEAKAAGDDAGATALLEEALRLAEAAGNAVLARLIRRALESLSSSSS
B14: il2ra_site2_2erj_normal_mot_HHH_b1_08185_000000063_0001_41_55_H_._3a06290c8baa6e8619b69186753886c6_0001_af2_0001_0000100009_0000001_0 (protein)
chain: DETEEALIELLLKAKSPSEIELIIRYIELSLKDTGDPRLEELLELAERLLRGDPEAEELLRELLP
B15: il2ra_site1_1z92_sap_10_mot_7b521abccb2855357a08c3dc921ef1fd_0001_000000147_0001_1_13_H_._HHH_b2_07324_0001_0000100009_0000001_0_0001_af2pred_0001_af2pred (protein)
chain: SSSSDEEEEELEKFVEELAEEFNLSESDKRQLKLMARRALEEGLDPEVIERDLKFAAEHLSSSSS
B16: il2ra_site1_1z92_normal_mot_HHH_b2_08343_af2_000000022_0001_38_52_H_._HEEHE_0007_0001_0000200026_0000001_0_af2pred_0001_af2pred (protein)
chain: SEEETIEKDVEAFAKFAGVPSVEVTSSNGKFSVTLEGQDHAARTAKRHIERTAKLAGLDLEVEIE
B17: il2ra_site2_3nfp_normal_mot_HHH_b2_07840_000000026_0001_18_34_H_._HHH_b1_05957_af2_0001_0000700038_0000001_0 (protein)
chain: SSSSSDVEELEEEIKRLLEEGDPEEAKELLKEVSQLAFERRDHELFALVLDLLELLARLESSSSS
B18: il2ra_site2_2erj_normal_mot_6d5f7cbc25fed124e3eb7f952334b9cf_0001_af2_000000048_0001_1_13_H_._HHH_b2_06289_af2_0001_0000400011_0000001_1 (protein)
chain: SSSSSDAAEIAREAFEKAREAFKNGDDEEAEEILEEAIELVHELNDEAAELALRALLRYLSSSSS
B19: il2ra_site2_3nfp_sap_12_mot_HHH_b2_07129_000000128_0001_19_36_H_._HHH_b2_01945_0001_0000500022_0000001_0_0001 (protein)
chain: SSSSDKRERYLRAALEAIRRAIEEGDEEAARRLLETVKAAAEDANDEEIQRLVEELEEELRSSSS

molecular target: il2ra, P01589; test: yeast display titration

| Binder | apparent Kd |
| --- | --- |
| B1 | inactive: > 1340 nM |
| B2 | inactive: no binding seen |
| B3 | inactive: no binding seen |
| B4 | inactive: no binding seen |
| B5 | inactive: no binding seen |
| B6 | inactive: no binding seen |
| B7 | inactive: no binding seen |
| B8 | inactive: no binding seen |
| B9 | inactive: no binding seen |
| B10 | inactive: no binding seen |
| B11 | inactive: no binding seen |
| B12 | inactive: no binding seen |
| B13 | inactive: no binding seen |
| B14 | inactive: no binding seen |
| B15 | inactive: no binding seen |
| B16 | inactive: no binding seen |
| B17 | inactive: no binding seen |
| B18 | inactive: no binding seen |
| B19 | inactive: no binding seen |

Some of the entries so far, as labelled records.
B9
  apparent Kd: inactive: no binding seen
B12
  apparent Kd: inactive: no binding seen
